These are yes or no findings as the source states them, for the method shown. In cells and extracts the contact can be indirect. Some entries that bind do so weakly or less than the wild type. Tags and fused reporters may be left off the sequences shown.
T1: endogenous Rad21 (human (endogenous in HeLaK)) (UniProt O60216)
T1 sequence: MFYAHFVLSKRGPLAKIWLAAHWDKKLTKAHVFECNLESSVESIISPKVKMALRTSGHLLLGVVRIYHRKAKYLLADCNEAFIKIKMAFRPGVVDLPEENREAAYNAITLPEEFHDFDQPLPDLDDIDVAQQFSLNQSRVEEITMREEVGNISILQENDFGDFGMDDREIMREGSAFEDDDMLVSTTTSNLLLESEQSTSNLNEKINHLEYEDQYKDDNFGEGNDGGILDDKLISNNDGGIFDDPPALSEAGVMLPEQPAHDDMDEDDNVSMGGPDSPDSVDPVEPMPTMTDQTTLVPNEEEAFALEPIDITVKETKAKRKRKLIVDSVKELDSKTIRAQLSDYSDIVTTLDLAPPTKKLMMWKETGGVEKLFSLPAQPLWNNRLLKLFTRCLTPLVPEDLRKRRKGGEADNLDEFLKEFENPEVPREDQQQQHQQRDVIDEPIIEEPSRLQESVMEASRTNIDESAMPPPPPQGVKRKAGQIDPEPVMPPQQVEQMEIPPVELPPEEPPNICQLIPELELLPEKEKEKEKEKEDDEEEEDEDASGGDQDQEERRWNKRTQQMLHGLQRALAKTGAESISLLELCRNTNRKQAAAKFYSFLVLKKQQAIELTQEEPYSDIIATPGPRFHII


Molecular target: T1, endogenous Rad21 (human (endogenous in HeLaK))
Experiment: co-IP

binding | Binder
binds | endogenous Pds5b (protein, UniProt Q9NTI5 1-1447) MAHSKTRTNDGKITYPPGVKEISDKISKEEMVRRLKMVVKTFMDMDQDSEEEKELYLNLALHLASDFFLKHPDKDVRLLVACCLADIFRIYAPEAPYTSPDKLKDIFMFITRQLKGLEDTKSPQFNRYFYLLENIAWVKSYNICFELEDSNEIFTQLYRTLFSVINNGHNQKVHMHMVDLMSSIICEGDTVSQELLDTVLVNLVPAHKNLNKQAYDLAKALLKRTAQAIEPYITNFFNQVLMLGKTSISDLSEHVFDLILELYNIDSHLLLSVLPQLEFKLKSNDNEERLQVVKLLAKMFGAKDSELASQNKPLWQCYLGRFNDIHVPIRLECVKFASHCLMNHPDLAKDLTEYLKVRSHDPEEAIRHDVIVSIVTAAKKDILLVNDHLLNFVRERTLDKRWRVRKEAMMGLAQIYKKYALQSAAGKDAAKQIAWIKDKLLHIYYQNSIDDRLLVERIFAQYMVPHNLETTERMKCLYYLYATLDLNAVKALNEMWKCQNLLRHQVKDLLDLIKQPKTDASVKAIFSKVMVITRNLPDPGKAQDFMKKFTQVLEDDEKIRKQLEVLVSPTCSCKQAEGCVREITKKLGNPKQPTNPFLEMIKFLLERIAPVHIDTESISALIKQVNKSIDGTADDEDEGVPTDQAIRAGLELLKVLSFTHPISFHSAETFESLLACLKMDDEKVAEAALQIFKNTGSKIEEDFPHIRSALLPVLHHKSKKGPPRQAKYAIHCIHAIFSSKETQFAQIFEPLHKSLDPSNLEHLITPLVTIGHIALLAPDQFAAPLKSLVATFIVKDLLMNDRLPGKKTTKLWVPDEEVSPETMVKIQAIKMMVRWLLGMKNNHSKSGTSTLRLLTTILHSDGDLTEQGKISKPDMSRLRLAAGSAIVKLAQEPCYHEIITLEQYQLCALAINDECYQVRQVFAQKLHKGLSRLRLPLEYMAICALCAKDPVKERRAHARQCLVKNINVRREYLKQHAAVSEKLLSLLPEYVVPYTIHLLAHDPDYVKVQDIEQLKDVKECLWFVLEILMAKNENNSHAFIRKMVENIKQTKDAQGPDDAKMNEKLYTVCDVAMNIIMSKSTTYSLESPKDPVLPARFFTQPDKNFSNTKNYLPPEMKSFFTPGKPKTTNVLGAVNKPLSSAGKQSQTKSSRMETVSNASSSSNPSSPGRIKGRLDSSEMDHSENEDYTMSSPLPGKKSDKRDDSDLVRSELEKPRGRKKTPVTEQEEKLGMDDLTKLVQEQKPKGSQRSRKRGHTASESDEQQWPEEKRLKEDILENEDEQNSPPKKGKRGRPPKPLGGGTPKEEPTMKTSKKGSKKKSGPPAPEEEEEEERQSGNTEQKSKSKQHRVSRRAQQRAESPESSAIESTQSTPQKGRGRPSKTPSPSQPKKNVRVGRSKQAATKENDSSEEVDVFQGSSPVDDIPQEETEEEEVSTVNVRRRSAKRERR
binds | Wild type Pds5b-Flag in HeLaK cells (protein, UniProt Q9NTI5 1-1447) MAHSKTRTNDGKITYPPGVKEISDKISKEEMVRRLKMVVKTFMDMDQDSEEEKELYLNLALHLASDFFLKHPDKDVRLLVACCLADIFRIYAPEAPYTSPDKLKDIFMFITRQLKGLEDTKSPQFNRYFYLLENIAWVKSYNICFELEDSNEIFTQLYRTLFSVINNGHNQKVHMHMVDLMSSIICEGDTVSQELLDTVLVNLVPAHKNLNKQAYDLAKALLKRTAQAIEPYITNFFNQVLMLGKTSISDLSEHVFDLILELYNIDSHLLLSVLPQLEFKLKSNDNEERLQVVKLLAKMFGAKDSELASQNKPLWQCYLGRFNDIHVPIRLECVKFASHCLMNHPDLAKDLTEYLKVRSHDPEEAIRHDVIVSIVTAAKKDILLVNDHLLNFVRERTLDKRWRVRKEAMMGLAQIYKKYALQSAAGKDAAKQIAWIKDKLLHIYYQNSIDDRLLVERIFAQYMVPHNLETTERMKCLYYLYATLDLNAVKALNEMWKCQNLLRHQVKDLLDLIKQPKTDASVKAIFSKVMVITRNLPDPGKAQDFMKKFTQVLEDDEKIRKQLEVLVSPTCSCKQAEGCVREITKKLGNPKQPTNPFLEMIKFLLERIAPVHIDTESISALIKQVNKSIDGTADDEDEGVPTDQAIRAGLELLKVLSFTHPISFHSAETFESLLACLKMDDEKVAEAALQIFKNTGSKIEEDFPHIRSALLPVLHHKSKKGPPRQAKYAIHCIHAIFSSKETQFAQIFEPLHKSLDPSNLEHLITPLVTIGHIALLAPDQFAAPLKSLVATFIVKDLLMNDRLPGKKTTKLWVPDEEVSPETMVKIQAIKMMVRWLLGMKNNHSKSGTSTLRLLTTILHSDGDLTEQGKISKPDMSRLRLAAGSAIVKLAQEPCYHEIITLEQYQLCALAINDECYQVRQVFAQKLHKGLSRLRLPLEYMAICALCAKDPVKERRAHARQCLVKNINVRREYLKQHAAVSEKLLSLLPEYVVPYTIHLLAHDPDYVKVQDIEQLKDVKECLWFVLEILMAKNENNSHAFIRKMVENIKQTKDAQGPDDAKMNEKLYTVCDVAMNIIMSKSTTYSLESPKDPVLPARFFTQPDKNFSNTKNYLPPEMKSFFTPGKPKTTNVLGAVNKPLSSAGKQSQTKSSRMETVSNASSSSNPSSPGRIKGRLDSSEMDHSENEDYTMSSPLPGKKSDKRDDSDLVRSELEKPRGRKKTPVTEQEEKLGMDDLTKLVQEQKPKGSQRSRKRGHTASESDEQQWPEEKRLKEDILENEDEQNSPPKKGKRGRPPKPLGGGTPKEEPTMKTSKKGSKKKSGPPAPEEEEEEERQSGNTEQKSKSKQHRVSRRAQQRAESPESSAIESTQSTPQKGRGRPSKTPSPSQPKKNVRVGRSKQAATKENDSSEEVDVFQGSSPVDDIPQEETEEEEVSTVNVRRRSAKRERR

— article doi:10.1101/2024.03.12.584565
